Patent publication US20110117113A1, “IMMUNOGLOBULIN SINGLE VARIABLE DOMAIN DIRECTED AGAINST HUMAN CXCR4 AND OTHER CELL ASSOCIATED PROTEINS AND METHODS TO GENERATE THEM” (priority 2009, published 2011)
These are yes or no findings as the source states them, for the method shown. Some binding calls cover weakened binding; strength is not graded here.

Sequences of proteins named here, by UniProt entry; tags and fusion partners are left off. A change or cut given only in a name is not applied to a line headed by its entry.
UniProt P61073: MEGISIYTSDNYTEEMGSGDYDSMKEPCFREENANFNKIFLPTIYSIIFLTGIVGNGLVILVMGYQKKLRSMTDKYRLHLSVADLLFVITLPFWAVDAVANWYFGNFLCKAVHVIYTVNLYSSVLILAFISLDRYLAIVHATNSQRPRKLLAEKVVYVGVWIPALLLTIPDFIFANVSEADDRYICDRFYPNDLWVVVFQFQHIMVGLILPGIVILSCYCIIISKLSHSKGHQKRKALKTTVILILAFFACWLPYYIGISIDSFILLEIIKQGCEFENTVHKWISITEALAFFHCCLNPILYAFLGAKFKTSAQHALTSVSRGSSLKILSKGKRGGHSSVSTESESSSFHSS

How the values were obtained:
[1] = molecular target: wildtype human CXCR4 (pcDNA3.1-CXCR4, expressed in HEK293T) (human) (UniProt P61073); assay: radioligand competition, HEK293T-CXCR4 membranes
CXCR4 (N119A) (human) = CXCR4 (N119A) (human) (UniProt P61073); assay: competition with [125I]-CXCL12, membranes with CXCR4 (N119A); no plateau at 2 µM
[2] = molecular target: wildtype human CXCR4 (pcDNA3.1-CXCR4, expressed in HEK293T) (human) (UniProt P61073); assay: periplasmic extract screen, [125I]-CXCL12 displacement, HEK293T-CXCR4 membranes

Measured: binding

B1: Nanobody 238D4 (VHH)
VHH: EVQLMESGGGLVQAGGSLRLSCAASGRTFNNYAMGWFRRAPGKEREFVAAITRSGVRSGVSAIYGDSVKDRFTISRDNAKNTLYLQMNSLKPEDTAVYTCAASAIGSGALRRFEYDYSGQGTQVTVSS
binds: all assays above
